From publication PMC11461180, “Interaction with IP6K1 supports pyrophosphorylation of substrate proteins by the inositol pyrophosphate 5-InsP7” (Bioscience Reports, 2024)
No constants are given. Whether binding was seen depends on the method and setting. In cells and extracts the contact can be indirect. Here binding means that the protein was enriched with, or labelled near, the bait; the list need not be complete. Blank lines part the entries; values can stand above or below the binder they belong to.

Amino acid sequences for entries named in this document (tags omitted).
UniProt Q92551: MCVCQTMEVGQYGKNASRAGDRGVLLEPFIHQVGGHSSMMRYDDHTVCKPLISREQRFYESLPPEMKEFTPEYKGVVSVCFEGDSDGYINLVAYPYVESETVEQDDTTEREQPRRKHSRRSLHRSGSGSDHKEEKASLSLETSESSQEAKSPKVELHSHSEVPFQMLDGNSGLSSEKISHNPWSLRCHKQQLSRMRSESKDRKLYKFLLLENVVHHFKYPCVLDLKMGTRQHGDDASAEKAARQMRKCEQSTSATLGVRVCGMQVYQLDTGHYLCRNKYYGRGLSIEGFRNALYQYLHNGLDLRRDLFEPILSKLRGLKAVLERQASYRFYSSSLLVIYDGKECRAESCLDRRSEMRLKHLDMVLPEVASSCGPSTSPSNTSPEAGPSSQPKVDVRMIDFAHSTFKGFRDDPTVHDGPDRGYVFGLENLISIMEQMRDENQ

Target: SFB-tagged IP6K1 (full length) (human) (UniProt Q92551)
Test: affinity purification with mass spectrometry; SFB-tagged bait expressed in HEK293T; lysis in NETN buffer (20 mM Tris-HCl pH 8.0, 100 mM NaCl, 1 mM EDTA, 0.5% Nonidet P-40) at 4°C; tandem purification on streptavidin-sepharose (biotin elution) and S-protein agarose; in-gel trypsin digest, LTQ Orbitrap; replicate sets; SFB-GFP as control

binding: binds
B1: endogenous AP3B1, the β subunit of the AP3 adaptor protein complex (protein, UniProt O00203 1-1094)
chain: MSSNSFPYNEQSGGGEATELGQEATSTISPSGAFGLFSSDLKKNEDLKQMLESNKDSAKLDAMKRIVGMIAKGKNASELFPAVVKNVASKNIEIKKLVYVYLVRYAEEQQDLALLSISTFQRALKDPNQLIRASALRVLSSIRVPIIVPIMMLAIKEASADLSPYVRKNAAHAIQKLYSLDPEQKEMLIEVIEKLLKDKSTLVAGSVVMAFEEVCPDRIDLIHKNYRKLCNLLVDVEEWGQVVIIHMLTRYARTQFVSPWKEGDELEDNGKNFYESDDDQKEKTDKKKKPYTMDPDHRLLIRNTKPLLQSRNAAVVMAVAQLYWHISPKSEAGIISKSLVRLLRSNREVQYIVLQNIATMSIQRKGMFEPYLKSFYVRSTDPTMIKTLKLEILTNLANEANISTLLREFQTYVKSQDKQFAAATIQTIGRCATNILEVTDTCLNGLVCLLSNRDEIVVAESVVVIKKLLQMQPAQHGEIIKHMAKLLDSITVPVARASILWLIGENCERVPKIAPDVLRKMAKSFTSEDDLVKLQILNLGAKLYLTNSKQTKLLTQYILNLGKYDQNYDIRDRTRFIRQLIVPNVKSGALSKYAKKIFLAQKPAPLLESPFKDRDHFQLGTLSHTLNIKATGYLELSNWPEVAPDPSVRNVEVIELAKEWTPAGKAKQENSAKKFYSESEEEEDSSDSSSDSESESGSESGEQGESGEEGDSNEDSSEDSSSEQDSESGRESGLENKRTAKRNSKAKGKSDSEDGEKENEKSKTSDSSNDESSSIEDSSSDSESESEPESESESRRVTKEKEKKTKQDRTPLTKDVSLLDLDDFNPVSTPVALPTPALSPSLMADLEGLHLSTSSSVISVSTPAFVPTKTHVLLHRMSGKGLAAHYFFPRQPCIFGDKMVSIQITLNNTTDRKIENIHIGEKKLPIGMKMHVFNPIDSLEPEGSITVSMGIDFCDSTQTASFQLCTKDDCFNVNIQPPVGELLLPVAMSEKDFKKEQGVLTGMNETSAVIIAAPQNFTPSVIFQKVVNVANVGAVPSGQDNIHRFAAKTVHSGSLMLVTVELKEGSTAQLIINTEKTVIGSVLLRELKPVLSQG

binding: binds
B2: endogenous TCOF (protein, UniProt Q13428 1-1488)
chain: MAEARKRRELLPLIYHHLLRAGYVRAAREVKEQSGQKCFLAQPVTLLDIYTHWQQTSELGRKRKAEEDAALQAKKTRVSDPISTSESSEEEEEAEAETAKATPRLASTNSSVLGADLPSSMKEKAKAETEKAGKTGNSMPHPATGKTVANLLSGKSPRKSAEPSANTTLVSETEEEGSVPAFGAAAKPGMVSAGQADSSSEDTSSSSDETDVEGKPSVKPAQVKASSVSTKESPARKAAPAPGKVGDVTPQVKGGALPPAKRAKKPEEESESSEEGSESEEEAPAGTRSQVKASEKILQVRAASAPAKGTPGKGATPAPPGKAGAVASQTKAGKPEEDSESSSEESSDSEEETPAAKALLQAKASGKTSQVGAASAPAKESPRKGAAPAPPGKTGPAVAKAQAGKREEDSQSSSEESDSEEEAPAQAKPSGKAPQVRAASAPAKESPRKGAAPAPPRKTGPAAAQVQVGKQEEDSRSSSEESDSDREALAAMNAAQVKPLGKSPQVKPASTMGMGPLGKGAGPVPPGKVGPATPSAQVGKWEEDSESSSEESSDSSDGEVPTAVAPAQEKSLGNILQAKPTSSPAKGPPQKAGPVAVQVKAEKPMDNSESSEESSDSADSEEAPAAMTAAQAKPALKIPQTKACPKKTNTTASAKVAPVRVGTQAPRKAGTATSPAGSSPAVAGGTQRPAEDSSSSEESDSEEEKTGLAVTVGQAKSVGKGLQVKAASVPVKGSLGQGTAPVLPGKTGPTVTQVKAEKQEDSESSEEESDSEEAAASPAQVKTSVKKTQAKANPAAARAPSAKGTISAPGKVVTAAAQAKQRSPSKVKPPVRNPQNSTVLARGPASVPSVGKAVATAAQAQTGPEEDSGSSEEESDSEEEAETLAQVKPSGKTHQIRAALAPAKESPRKGAAPTPPGKTGPSAAQAGKQDDSGSSSEESDSDGEAPAAVTSAQVIKPPLIFVDPNRSPAGPAATPAQAQAASTPRKARASESTARSSSSESEDEDVIPATQCLTPGIRTNVVTMPTAHPRIAPKASMAGASSSKESSRISDGKKQEGPATQVSKKNPASLPLTQAALKVLAQKASEAQPPVARTQPSSGVDSAVGTLPATSPQSTSVQAKGTNKLRKPKLPEVQQATKAPESSDDSEDSSDSSSGSEEDGEGPQGAKSAHTLGPTPSRTETLVEETAAESSEDDVVAPSQSLLSGYMTPGLTPANSQASKATPKLDSSPSVSSTLAAKDDPDGKQEAKPQQAAGMLSPKTGGKEAASGTTPQKSRKPKKGAGNPQASTLALQSNITQCLLGQPWPLNEAQVQASVVKVLTELLEQERKKVVDTTKESSRKGWESRKRKLSGDQPAARTPRSKKKKKLGAGEGGEASVSPEKTSTTSKGKAKRDKASGDVKEKKGKGSLGSQGAKDEPEEELQKGMGTVEGGDQSNPKSKKEKKKSDKRKKDKEKKEKKKKAKKASTKDSESPSQKKKKKKKKTAEQTV
